The numbers were not newly measured in patent publication US20110306564A1, “SOLID COMPOSITION, MICROPARTICLES, MICROPARTICLE DISPERSION LIQUID, AND MANUFACTURING METHODS FOR THESE” (HAMAMATSU PHOTONICS K.K., priority 2007, published 2011), which cites them from elsewhere.

The conditions of this data set: room temperature.

For the compound `CC(=O)O[C@H]1C(=O)[C@@]2(C)[C@H]([C@H](OC(=O)c3ccccc3)[C@]3(O)C[C@H](OC(=O)[C@H](O)[C@@H](NC(=O)c4ccccc4)c4ccccc4)C(C)=C1C3(C)C)[C@]1(OC(C)=O)CO[C@@H]1C[C@@H]2O` [paclitaxel], the solubility in water entry was “approximately 0.5 μg/mL”.
